# Hit rate of the full screen: of about 320,000 compounds, about 740 (0.23%) were called active. Inconclusive results, whose numbers are uncertain, are shown with a selection of clear calls. Calls follow the shape of the dose curve; as a rule, active = well fitted activation curve with a large enough effect; inconclusive = small, poorly fitted or top-dose-only effect; inactive = no such curve, though single readings can be large or run the other way. Where the call is inconclusive, the potency comes from a doubtful curve fit.
# Experiment: qHTS Assay for Small Molecule Inhibitors of Mitochondrial Division or Activators of Mitochondrial Fusion; also: nearly all actives have a fitted effect of over 45% in size
# Settings: S. cerevisiae fusion-defective mutant growth rescue, CellTiterGlo 48 h; series mostly up to 46.1 µM
# Summary of the method: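 Temperature-sensitive fusion-defective S. cerevisiae (e.g. fzo1-1, mgm1-5) were grown with compound in YPEG medium (3% ethanol, 3% glycerol) for 48 hours at 37C. Growth rescue was measured as viability by CellTiterGlo luminescence after 10 minutes at ambient.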
# Potency is read from the fitted curve at half-maximal effect.
row,Compound,Potency
1,O=C(N[C@@H](Cc1ccccc1)C(=O)NC1CC1)c1ccc(Cl)cc1,"inconclusive: 3.98 µM [activator, partial curve]"
2,CCc1nc(N2CCN(CC(=O)NCC3CCCO3)CC2)c(C#N)c2c1COC(C)(C)C2 (centres undefined),"inconclusive: 3.16 µM [activator, partial curve]"
3,COc1ccc([C@H]2CC(=O)C=C(c3cccc(Br)c3)C2)cc1,"inconclusive: 15.8 µM [activator, single point]"
4,Cc1c(C(=O)c2ccc(Cl)c([N+](=O)[O-])c2)c2ccccn2c1CCC#N,"inconclusive: 22.4 µM [activator, single point]"
5,O=C(NCCc1c[nH]c2ccccc12)c1cc2sccc2n1Cc1ccccc1,"inconclusive: 12.6 µM [activator, partial curve]"
6,CCCN(CCC)C(=O)CC(c1ccccc1)c1ccc(C)cc1O (centres undefined),"inconclusive: 15.8 µM [activator, single point]"
7,Cc1ccc(C)c(Sc2ccc(NC(=O)CCN3C(=O)NC4(CCCC4)C3=O)cc2)c1,inactive
8,COc1ccc(NC(=O)COc2ccccc2)cc1Cl,"inconclusive: 35.5 µM [activator, single point]"
9,N#Cc1nc(-c2ccccc2Cl)oc1N1CCCCC1,"inconclusive: 14.1 µM [activator, partial curve]"
10,CCc1ccc(-c2csc(NC(=O)C3=COCCO3)n2)cc1,"inconclusive: 35.5 µM [activator, single point]"
11,CCOc1cc(C2NN=C(c3ccc(C)cc3)S2)ccc1O (centres undefined),"inconclusive: 22.4 µM [activator, single point]"
12,Cc1ccc(S(=O)(=O)N2CCN(c3ncnc4scc(-c5ccc(F)cc5)c34)CC2)cc1,"inconclusive: 11.2 µM [activator, partial curve]"
13,S=c1nc(-c2cccc(Br)c2)[nH][nH]1,"inconclusive: 11.2 µM [activator, partial curve, poor fit]"
14,CN(C(=O)COC(=O)c1ccc(C#N)cc1)c1ccccc1,inactive
15,Cn1cccc1/C=C1\CC(C(C)(C)C)C/C(=C\c2cccn2C)C1=O (centres undefined),inactive
16,Cc1ccc(Cl)cc1N1CCN(S(=O)(=O)c2c(C)noc2C)CC1,active: 17.8 µM
17,CN(c1ccccc1)S(=O)(=O)c1cccc(NC(=O)c2nn(C)c(=O)c3ccccc23)c1,"inconclusive: 11.2 µM [activator, partial curve]"
18,NNc1nc2sc3c(c2c(=O)[nH]1)CCc1ccccc1-3,"inconclusive: 11.2 µM [activator, partial curve]"
19,CC(C)(C)n1nnnc1C(c1cccs1)N1CCN(c2ccccc2)CC1 (centres undefined),"inconclusive: 11.2 µM [activator, partial curve]"
20,Oc1ccc(/C=C/c2ccc3cccc(O)c3n2)cc1Br,inactive
21,COCCCNC(=O)c1ccc(CNS(=O)(=O)c2ccc(NC(C)=O)cc2)cc1,active: 0.631 µM
22,O=C(Nc1ccccc1)c1ccc(-c2ccc(Br)cc2)o1,active: 15.8 µM
23,COc1ccc(N2CCN(C(c3cccs3)C(C)NS(=O)(=O)c3ccccc3)CC2)cc1 (centres undefined),"inconclusive: 20 µM [activator, single point]"

row,Compound,Potency
1,C/C=C(\C)C(=O)Nc1cccc(C2=NOC3(C2)C[C@H](C(N)=O)N(C(=O)C(c2ccccc2)c2ccccc2)C3)c1 (some centres undefined),"inconclusive: 25.1 µM [activator, partial curve]"
2,Cc1sc2ncnc(N3CCN(S(=O)(=O)c4ccc(F)cc4)CC3)c2c1C,"inconclusive: 31.6 µM [activator, single point]"
3,COc1ccc(C(=O)Nc2cc3c(oc2=O)CCCC3=O)cc1,"inconclusive: 3.16 µM [activator, partial curve]"
4,O=C(NCc1ccc(F)cc1)C1CCC(CNS(=O)(=O)c2cccs2)CC1 (centres undefined),inactive
5,Cc1c(OCC(=O)N(C)c2ccccc2)ccc2c3c(c(=O)oc12)CCC3,"inconclusive: 35.5 µM [activator, partial curve]"
6,CC(=O)N1CCOc2ccc(S(=O)(=O)N3CCC(C(=O)Nc4ccc(F)cc4)CC3)cc21,inactive
7,CC1CCN(C2=C(NS(=O)(=O)c3ccc(Cl)cc3)C(=O)c3ccccc3C2=O)CC1,active: 15.8 µM
8,O=C1OCCC1Sc1nnc(-c2ccc(Cl)cc2Cl)o1 (centres undefined),inactive
9,N#Cc1ccccc1NC(=S)NC(=O)c1cccs1,inactive
10,Nc1c(C(=O)O)cnc2c(-c3ccc(Cl)cc3)cnn12,inactive
11,O=C1C=C(c2cc(Cl)cc(Cl)c2)C[C@@H](c2ccc(F)cc2)C1,"inconclusive: 35.5 µM [activator, single point]"
12,Cc1cc(C(=O)Cn2nc(C(=O)O)c3ccccc3c2=O)c(C)n1-c1ccccc1,"inconclusive: 35.5 µM [activator, single point]"
13,Cn1c(C=O)c(-c2ccc3c(c2)OCCO3)c2ccccc21,"inconclusive: 10 µM [activator, single point]"
14,CCCCn1c(Cn2nc(C(=O)O)c3ccccc3c2=O)nc2cc(S(N)(=O)=O)ccc21,inactive
15,Cc1cccc2cn[nH]c12,"inconclusive: 35.5 µM [activator, single point]"
16,N/C(=N\OC(=O)COc1ccc(Cl)cc1Cl)c1ccncc1,"inconclusive: 14.1 µM [activator, partial curve]"
17,COc1ccc(C)cc1S(=O)(=O)NCC(c1ccco1)N1CCc2ccccc2C1 (centres undefined),"inconclusive: 17.8 µM [activator, single point]"
18,O=C(COc1ccc(Cl)cc1Cl)OCC(=O)c1ccc[nH]1,inactive
19,O=C(Nc1nc2c(s1)CCCC2)Oc1ccccc1,inactive
20,O=C(OC(c1ccccc1)c1nccc2ccccc12)c1cc([N+](=O)[O-])cc([N+](=O)[O-])c1 (centres undefined),"inconclusive: 10 µM [activator, partial curve]"
21,O=C(COC(=O)CC(c1ccccc1)c1ccccc1)NCc1ccc(Cl)cc1,"inconclusive: 31.6 µM [activator, single point]"
22,O/N=C/c1ccc(OCc2ccccc2)c(Br)c1,"inconclusive: 25.1 µM [activator, single point]"
23,O=C(Nc1ccc(-c2nc3ccccc3[nH]2)cc1)C1CCCO1 (centres undefined),inactive

row,Compound,Potency
1,O=C(CCCOc1ccc(Cl)cc1Cl)N1CCc2ccccc2C1,"inconclusive: 20 µM [activator, single point]"
2,CN(CC(=O)Nc1ccc(S(=O)(=O)N2CCCC2)cc1)Cc1cccc(Cl)c1Cl,"inconclusive: 35.5 µM [activator, single point]"
3,Cc1cccc(/C=N/Nc2cc(N3CCOCC3)nc(N3CCOCC3)n2)c1,"inconclusive: 31.6 µM [activator, single point]"
4,O=C(Nc1nnc(-c2ccc3c(c2)CCCC3)o1)c1ccc(Cl)cc1Cl,"inconclusive: 5.62 µM [activator, single point]"
5,CCOC(=O)c1sc(-c2ccccc2)cc1NC(=O)CSc1nnnn1C,"inconclusive: 5.62 µM [activator, partial curve]"
6,COc1ccc2c(c1)[C@H]1[C@H](CO2)[C@H](c2ccccc2)[C@]2(C)C(=O)Nc3cc(F)c(F)cc3C(=O)N12,"inconclusive: 35.5 µM [activator, single point]"
7,c1coc(-c2ccnc(-n3cccc3)n2)c1,inactive
8,COc1cc(OC)cc(C(=O)NCC(=O)N2CC=C(c3ccccc3)CC2)c1,inactive
9,CCCCn1c(O)c(/C=C2\C=NN=C2c2ccccc2)sc1=S,inactive
10,CCOC(=O)C1Cn2c(nc3c(c2=O)C(C)(CC)Cc2ccccc2-3)S1 (centres undefined),"inconclusive: 12.6 µM [activator, partial curve]"
11,CCN1C(=O)[C@H]2[C@@H](c3ccc(-c4ccc(F)cc4)cc3)N[C@@](Cc3ccccc3)(C(=O)OC)[C@H]2C1=O,"inconclusive: 3.98 µM [activator, full curve]"
12,CC(=O)Nc1cccc(NC(=O)CSc2ncc(-c3ccc(Cl)cc3)n2Cc2ccco2)c1,"inconclusive: 31.6 µM [activator, single point]"
13,COc1ccc(OC(=O)c2cnc3n(c2=O)CCS3)cc1,"inconclusive: 31.6 µM [activator, single point]"
14,Cc1cccc(Oc2sc(C(=O)c3ccccc3)c(N)c2C#N)c1,inactive
15,COc1ccc(CC(=O)NCC2CCCCC2)cc1OC,"inconclusive: 0.501 µM [activator, full curve, poor fit]"
16,Cc1ccc(N/N=C(/Sc2nnnn2-c2ccccc2)C(=O)c2ccccc2)cc1,"inconclusive: 20 µM [activator, single point]"
17,CC1CN(C(=O)c2ccc(COc3ccccc3Cl)o2)CC(C)O1 (centres undefined),"inconclusive: 11.2 µM [activator, partial curve]"
18,C=CCO/N=C(/C)c1c(O)c(CC)c(-c2ccccc2)n(-c2ccccc2)c1=O,"inconclusive: 15.8 µM [activator, partial curve]"
19,S=c1[nH]nc(-c2cccs2)n1/N=C/c1cn(-c2ccccc2)nc1-c1cccs1,inactive
20,O=C(O)c1ccccc1CSc1nc2ccccc2n1Cc1ccccc1C(=O)O,"inconclusive: 12.6 µM [activator, partial curve]"
21,Cc1cc(C)nc(SCc2ccc(C(=O)N/N=C/c3ccccc3C(=O)O)cc2)n1,"inconclusive: 35.5 µM [activator, single point]"
22,COc1ccccc1NS(=O)(=O)c1cccc(C(=O)OCc2nc3ccccc3s2)c1,"inconclusive: 11.2 µM [activator, partial curve]"
23,O=c1c2ccccc2nc(-c2cccs2)n1-c1cccc2ccccc12,"inconclusive: 35.5 µM [activator, single point]"

# In another format: entries from further up.
row | Compound | Potency
11 | CCN1C(=O)[C@H]2[C@@H](c3ccc(-c4ccc(F)cc4)cc3)N[C@@](Cc3ccccc3)(C(=O)OC)[C@H]2C1=O | inconclusive: 3.98 µM [activator, full curve]
12 | CC(=O)Nc1cccc(NC(=O)CSc2ncc(-c3ccc(Cl)cc3)n2Cc2ccco2)c1 | inconclusive: 31.6 µM [activator, single point]

# From PubChem BioAssay AID485298 (National Center for Advancing Translational Sciences (NCATS), 2010)
